# Source: PMC4742970 (Nature Communications, 2016)
# Test system: Msh2(HA)-Msh6(3MBD) (Saccharomyces cerevisiae)
# Test: EMSA
# Details: 1 nM DNA, increased affinity for +8 loop; EMSA: 20 mM HEPES pH 7.5, 100 mM NaCl, 1 mM DTT, 40 ug/ml BSA, 2 mM MgCl2, RT; recombinant protein; protein details: HA tag in Msh2 between residues 644 and 645; label: radiolabel
sequence,measurement,value
GGGTCAACGTGGGCAAAGATGTCCTAGCAAGTCAGAATTCGGTAGCGTG / CACGCTACCGAATTCTGACTTGCTAGGTGTGTGTGACATCTTTGCCCACGTTGACCC [+8 loop LS2/LS8],binding result,binds

# Construct, isoform or probe ends are uncertain for at least one entry.
